PubChem BioAssay AID504786, Drosophila RNAi Screening Center, 2011

Purpose: 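Positive regulators of HIF-driven reporter output in Drosophila cells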 (primary screen)
Cell system: Drosophila S2 cells with a stable HIF luciferase reporter
Reagents: long dsRNA against Drosophila genes, about 0.2 µg dsRNA per well of a 384-well plate
Timing: three days of knock-down, then 20 h of DFO before reading
Challenge: desferrioxamine (DFO) at 100 µM, an iron chelator that mimics hypoxia, for 20 h
Read-out: 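Firefly luciferase driven by the mouse ldh-a hypoxia-response element, measured after 20 h of 100 µM DFO; z-scores per plate, higher means more signal lost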
Scale: z-score: higher = stronger loss of HIF reporter signal
The deposit covers about 21,000 reagents; this is a random part of those that have a named target and a result. 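Primary screen; positive scores mean lost reporter signal, so the sign may be inverted from the usual convention.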 Reagents against one gene are numbered here. A plus sign joins genes that one reagent is predicted to hit. Further read-outs or replicates are left out here.

The opening 10 entries, ahead of the listing:
no.	target gene	dsRNA no.	z-score, replicate 1
1	otk (off-track)	1	-0.3
2	pug (pugilist)	1	0.2
3	CG13364	1	-0.4
4	CG13364	2	0.1
5	CG31776	1	-0.4
6	Pdzd8 (PDZ domain containing 8)	1	0.2
7	CG1636	1	-0.2
8	milt (milton)	1	0.8
9	milt (milton)	2	1.1
10	milt (milton)	3	-0.3

The listing, from the first entry:
no.	target gene	dsRNA no.	z-score, replicate 1
1	otk (off-track)	1	-0.3
2	pug (pugilist)	1	0.2
3	CG13364	1	-0.4
4	CG13364	2	0.1
5	CG31776	1	-0.4
6	Pdzd8 (PDZ domain containing 8)	1	0.2
7	CG1636	1	-0.2
8	milt (milton)	1	0.8
9	milt (milton)	2	1.1
10	milt (milton)	3	-0.3
11	IP3K1 (Inositol 1,4,5-triphosphate kinase 1)	1	-0.1
12	Or59a (Odorant receptor 59a)	1	-0.2
13	Idgf1 (Imaginal disc growth factor 1)	1	-0.3
14	Hdc (Histidine decarboxylase)	1	-0.4
15	CG15617	1	-0.3
16	TwdlE (TweedleE)	1	-0.3
17	Parp1 (Poly-(ADP-ribose) polymerase 1)	1	0.3
18	Parp1 (Poly-(ADP-ribose) polymerase 1)	2	-0.4
19	Parp1 (Poly-(ADP-ribose) polymerase 1)	3	-0.3
20	CG42326	1	-0.3
21	CG42326	2	-0.3
22	SmydA-1 (SET and MYND domain containing, arthropod-specific, member 1)	1	-0.4
23	e(r) (enhancer of rudimentary)	1	-0.2
24	Non1 (Novel nucleolar protein 1)	1	0
25	CG18273	1	-0.4
26	CG18273	2	-0.3
27	CG14036	1	-0.3
28	Smyd3 (SET and MYND domain containing, class 3)	1	-0.3
29	CG3021	1	-0.3
30	CG3021	2	-0.3
31	Cpr35B (Cuticular protein 35B)	1	-0.3
32	CG9286	1	0.3
33	Vti1a (Vesicle transport through interaction with t-SNAREs 1a)	1	0.1
34	tra2 (transformer 2)	1	-0.4
35	Faa (Fumarylacetoacetase)	1	-0.3
36	CG32590	1	-0.3
37	robo1 (roundabout 1)	1	-0.3
38	egl (egalitarian)	1	-0.3
39	RpS4 (Ribosomal protein S4)	1	7.7
40	CG15771	1	-0.2
41	Prp18	1	0.4
42	CG11357	1	-0.3
43	CG15525	1	0
44	CG32855	1	0.1
45	PGAP2 (Post-GPI attachment to proteins 2)	1	0.8
46	Rrp45	1	0.7
47	SPoCk (Secretory Pathway Calcium atpase)	1	-0.3
48	SPoCk (Secretory Pathway Calcium atpase)	2	0
49	SPoCk (Secretory Pathway Calcium atpase)	3	-0.3
50	SPoCk (Secretory Pathway Calcium atpase)	4	-0.2
51	stv (starvin)	1	-0.3
52	stv (starvin)	2	-0.1
53	TTLL12 (Tubulin tyrosine ligase-like 12)	1	-0.2
54	CG1578	1	-0.2
55	Uhg2 + snoRNA:Me18S-G1620 + snoRNA:U14:30Ea	1	-0.1
56	myo (myoglianin)	1	-0.2
57	Sting	1	0
58	pdm3 (pou domain motif 3)	1	-0.3
59	pdm3 (pou domain motif 3)	2	-0.3
60	CoRest	1	1.8
61	Jhbp13 (Juvenile hormone binding protein 13)	1	-0.2
62	CG9590	1	-0.3
63	SNCF (SoxNeuro Co-Factor)	1	-0.4
64	omd (oocyte maintenance defects)	1	0.7
65	CG3123	1	0.2
66	unpg (unplugged)	1	-0.4
67	CG30398	1	-0.6
68	CG10804	1	-0.2
69	CG9399	1	-0.4
70	AhcyL1 (Adenosylhomocysteinase like 1)	1	-0.3
71	CG11977	1	-0.3
72	CG8300	1	-0.4
73	Synj (Synaptojanin)	1	-0.3
74	CG31975 + ovm	1	-0.1
75	bma (black match)	1	-0.3
76	bma (black match)	2	-0.3
77	Z600	1	-0.3
78	Snap24 (Synaptosomal-associated protein 24kDa)	1	-0.2
79	CG31517	1	0.1
80	CG32032	1	-0.3
81	ND-B14.7 (NADH dehydrogenase (ubiquinone) B14.7 subunit)	1	0.7
82	sno (strawberry notch)	1	-0.4
83	mnd (minidiscs)	1	-0.2
